# Laboratory results: publication PMC4519322 (PLoS Pathogens, 2015)
# By UniProt entry, the sequences of proteins in these tests, tags left out. Residues count along the entry.
# UniProt P15682, residues 8-498: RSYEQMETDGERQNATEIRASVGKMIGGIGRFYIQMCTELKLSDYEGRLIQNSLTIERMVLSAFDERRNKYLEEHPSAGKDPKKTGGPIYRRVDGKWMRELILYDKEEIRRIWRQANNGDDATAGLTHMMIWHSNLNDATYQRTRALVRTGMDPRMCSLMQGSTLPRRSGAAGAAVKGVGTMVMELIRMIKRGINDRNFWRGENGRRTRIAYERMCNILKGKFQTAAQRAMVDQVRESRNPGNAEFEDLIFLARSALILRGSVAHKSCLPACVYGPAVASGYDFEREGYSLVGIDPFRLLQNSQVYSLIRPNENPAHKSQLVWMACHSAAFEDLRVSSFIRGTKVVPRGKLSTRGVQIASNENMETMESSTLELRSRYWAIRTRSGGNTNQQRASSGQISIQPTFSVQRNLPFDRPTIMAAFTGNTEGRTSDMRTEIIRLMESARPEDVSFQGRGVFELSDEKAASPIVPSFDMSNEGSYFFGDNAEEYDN
# UniProt O14980: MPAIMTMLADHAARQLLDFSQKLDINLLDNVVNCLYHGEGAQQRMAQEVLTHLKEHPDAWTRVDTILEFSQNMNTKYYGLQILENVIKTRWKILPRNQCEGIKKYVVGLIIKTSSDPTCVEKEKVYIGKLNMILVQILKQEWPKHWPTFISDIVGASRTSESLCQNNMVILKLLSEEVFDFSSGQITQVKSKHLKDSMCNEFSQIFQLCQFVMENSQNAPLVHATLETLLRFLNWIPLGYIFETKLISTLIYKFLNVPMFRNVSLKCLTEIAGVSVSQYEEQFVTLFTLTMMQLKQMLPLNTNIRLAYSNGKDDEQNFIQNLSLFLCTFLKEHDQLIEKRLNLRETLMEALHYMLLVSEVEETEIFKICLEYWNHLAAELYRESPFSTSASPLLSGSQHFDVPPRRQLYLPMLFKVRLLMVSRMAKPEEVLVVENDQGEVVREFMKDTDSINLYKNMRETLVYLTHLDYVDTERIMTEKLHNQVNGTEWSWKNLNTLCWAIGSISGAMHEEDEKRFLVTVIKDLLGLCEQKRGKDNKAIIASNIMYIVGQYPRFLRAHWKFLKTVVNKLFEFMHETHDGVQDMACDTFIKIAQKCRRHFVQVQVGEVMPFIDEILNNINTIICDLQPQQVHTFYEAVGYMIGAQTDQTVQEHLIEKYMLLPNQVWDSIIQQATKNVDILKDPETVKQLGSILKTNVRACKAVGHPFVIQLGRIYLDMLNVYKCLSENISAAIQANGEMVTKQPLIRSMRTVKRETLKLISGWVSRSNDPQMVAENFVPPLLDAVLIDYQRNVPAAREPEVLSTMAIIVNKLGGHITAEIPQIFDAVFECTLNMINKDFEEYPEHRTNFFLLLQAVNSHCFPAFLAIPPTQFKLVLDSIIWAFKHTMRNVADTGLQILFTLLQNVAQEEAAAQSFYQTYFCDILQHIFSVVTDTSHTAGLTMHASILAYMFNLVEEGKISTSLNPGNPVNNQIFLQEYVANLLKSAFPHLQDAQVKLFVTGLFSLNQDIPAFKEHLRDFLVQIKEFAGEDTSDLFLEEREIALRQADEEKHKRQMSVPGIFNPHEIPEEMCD
# No constants are given. Whether binding was seen depends on the method and setting. In cells and extracts the contact can be indirect. Some binding calls cover weakened binding; strength is not graded here.
# Target: wild-type NP fused to a Flag tag (NP-Flag), influenza A/WSN/1933 (H1N1) nucleoprotein (influenza A/WSN/1933 (H1N1) virus) (UniProt P15682)
# Assay: pull-down; only the target purified
substance,measurement,value
chromosome region maintenance 1 (CRM1) (from UniProt O14980 1-1071),binding,binds
